In PubChem BioAssay AID1645848:

Details: buffer; pH 7.4; 6.0 h; 150.0 µM

Row | Structure (SMILES) | solubility kinetic [µg/mL]
1 | CCNC(=O)C[C@@H]1N=C(c2ccc(Cl)cc2)c2cc(OC)ccc2-n2c(C)nnc21 | > 63
2 | COc1ccc2[nH]c3c(C)c4ccncc4c(C)c3c2c1 | < 1
